{"source": "patent US20090269356", "key": {"[1]": {"tested_on": "complement C5 in cynomolgus serum (Macaca fascicularis)", "assay": "inhibition of the protein", "conditions": "protein in an extract, variant of ARC186"}, "[2]": {"target": "complement C5 (full length) (Homo sapiens) (UniProt P01031)", "assay": "competition with a labelled probe", "conditions": "37 C, purified native protein, variant of ARC186; for binding result: 2 nM C5, curve overlaps ARC186"}, "[3]": {"target": "complement C5 in human serum/blood (Homo sapiens) (UniProt P01031)", "assay": "inhibition of the protein", "conditions": "as ARC186 plus 5' 30 kDa PEG; hemolysis, human serum; protein in an extract; variant of ARC186"}, "[4]": {"tested_on": "complement C5 in rat serum (Rattus norvegicus)", "assay": "inhibition of the protein", "conditions": "as ARC186 plus 5' branched 40 kDa PEG (2,3-bis(mPEG-20kDa)-propyl-1-carbamoyl); hemolysis, 0.3% rat serum; little to no specific inhibition; protein in an extract; variant of ARC186; dose not given here"}}, "note": "Construct, isoform or probe ends are uncertain for at least one entry. For part of these data: A negative result means that nothing was seen under these conditions. For part of these data: The comparison behind a weaker result is the experiment's own reference, which may not be listed here. For part of these data: Where cells or extracts were used, other partners may take part."}
{"sequence": "CGCCGCGGUCUCAGGCGCUGAGUCUGAGUUUACCUGCG [ARC187]", "values": [{"measurement": "functional effect of the aptamer", "setting": "[1]; 2'-F C and U, 2'-OMe purines except three 2'-OH, 3' inverted dT, 5' branched 40 kDa PEG (1,3-bis(mPEG-20kDa)-propyl-2-(4'-butamide)), zymosan activation of dosed cynomolgus plasma, about 15 uM (30-fold excess) needed", "value": "active"}]}
{"sequence": "CGCCGCGGUCUCAGGCGCUGAGUCUGAGUUUACCUGCG [ARC657]", "values": [{"measurement": "functional effect of the aptamer", "setting": "[1]; as ARC186 plus 5' 20 kDa PEG, zymosan activation of dosed cynomolgus plasma, about 15 uM needed", "value": "active"}, {"measurement": "binding result", "setting": "[2]; as ARC186 plus 5' 20 kDa PEG", "value": "binds"}]}
{"sequence": "CGCCGCGGUCUCAGGCGCUGAGUCUGAGUUUACCUGCG [ARC658]", "values": [{"measurement": "IC50", "setting": "[3]", "value": 0.21, "unit": "nM"}, {"measurement": "IC50", "setting": "[1]; as ARC186 plus 5' 30 kDa PEG, hemolysis, cynomolgus serum", "value": 1.7, "unit": "nM"}, {"measurement": "binding result", "setting": "[2]; as ARC186 plus 5' 30 kDa PEG", "value": "binds"}]}
{"sequence": "CGCCGCGGUCUCAGGCGCUGAGUCUGAGUUUACCUGCG [ARC672]", "values": [{"measurement": "Kd", "setting": "[2]; as ARC186 plus 5' amine (C6), PBS, 1 mM MgCl2, BSA, tRNA, competition with 32P-ARC186", "value": 0.46, "unit": "nM"}]}
{"sequence": "CGCCGCGGUCUCAGGCGCUGAGUCUGAGUUUACCUGCG [ARC1905]", "values": [{"measurement": "functional effect of the aptamer", "setting": "[1]; as ARC186 plus 5' branched 40 kDa PEG (2,3-bis(mPEG-20kDa)-propyl-1-carbamoyl), hemolysis, 0.1% serum, about 10-fold less potent than human, dose not given here", "value": "less active"}, {"measurement": "functional effect of the aptamer", "setting": "[4]", "value": "not active"}]}
